Test [1] concerns the target TgGPAT-myc (Toxoplasma gondii Glycerol-3-phosphate acyl transferase with a myc tag after residue 256) (Toxoplasma gondii). Briefly: co-IP; T. gondii parasites lysed by ultrasonication in RIPA buffer; lysate with mouse anti-myc antibody 12 h, Protein A/G agarose 6 h at 4°C, washed with RIPA; Western blot with anti-HA; ΔKu80 parasites as negative control. A general note: A western blot detects proteins with antibodies after separation by electrophoresis.

Chains of the proteins cited; added tags and fusions are not shown.
UniProt S8G6L4: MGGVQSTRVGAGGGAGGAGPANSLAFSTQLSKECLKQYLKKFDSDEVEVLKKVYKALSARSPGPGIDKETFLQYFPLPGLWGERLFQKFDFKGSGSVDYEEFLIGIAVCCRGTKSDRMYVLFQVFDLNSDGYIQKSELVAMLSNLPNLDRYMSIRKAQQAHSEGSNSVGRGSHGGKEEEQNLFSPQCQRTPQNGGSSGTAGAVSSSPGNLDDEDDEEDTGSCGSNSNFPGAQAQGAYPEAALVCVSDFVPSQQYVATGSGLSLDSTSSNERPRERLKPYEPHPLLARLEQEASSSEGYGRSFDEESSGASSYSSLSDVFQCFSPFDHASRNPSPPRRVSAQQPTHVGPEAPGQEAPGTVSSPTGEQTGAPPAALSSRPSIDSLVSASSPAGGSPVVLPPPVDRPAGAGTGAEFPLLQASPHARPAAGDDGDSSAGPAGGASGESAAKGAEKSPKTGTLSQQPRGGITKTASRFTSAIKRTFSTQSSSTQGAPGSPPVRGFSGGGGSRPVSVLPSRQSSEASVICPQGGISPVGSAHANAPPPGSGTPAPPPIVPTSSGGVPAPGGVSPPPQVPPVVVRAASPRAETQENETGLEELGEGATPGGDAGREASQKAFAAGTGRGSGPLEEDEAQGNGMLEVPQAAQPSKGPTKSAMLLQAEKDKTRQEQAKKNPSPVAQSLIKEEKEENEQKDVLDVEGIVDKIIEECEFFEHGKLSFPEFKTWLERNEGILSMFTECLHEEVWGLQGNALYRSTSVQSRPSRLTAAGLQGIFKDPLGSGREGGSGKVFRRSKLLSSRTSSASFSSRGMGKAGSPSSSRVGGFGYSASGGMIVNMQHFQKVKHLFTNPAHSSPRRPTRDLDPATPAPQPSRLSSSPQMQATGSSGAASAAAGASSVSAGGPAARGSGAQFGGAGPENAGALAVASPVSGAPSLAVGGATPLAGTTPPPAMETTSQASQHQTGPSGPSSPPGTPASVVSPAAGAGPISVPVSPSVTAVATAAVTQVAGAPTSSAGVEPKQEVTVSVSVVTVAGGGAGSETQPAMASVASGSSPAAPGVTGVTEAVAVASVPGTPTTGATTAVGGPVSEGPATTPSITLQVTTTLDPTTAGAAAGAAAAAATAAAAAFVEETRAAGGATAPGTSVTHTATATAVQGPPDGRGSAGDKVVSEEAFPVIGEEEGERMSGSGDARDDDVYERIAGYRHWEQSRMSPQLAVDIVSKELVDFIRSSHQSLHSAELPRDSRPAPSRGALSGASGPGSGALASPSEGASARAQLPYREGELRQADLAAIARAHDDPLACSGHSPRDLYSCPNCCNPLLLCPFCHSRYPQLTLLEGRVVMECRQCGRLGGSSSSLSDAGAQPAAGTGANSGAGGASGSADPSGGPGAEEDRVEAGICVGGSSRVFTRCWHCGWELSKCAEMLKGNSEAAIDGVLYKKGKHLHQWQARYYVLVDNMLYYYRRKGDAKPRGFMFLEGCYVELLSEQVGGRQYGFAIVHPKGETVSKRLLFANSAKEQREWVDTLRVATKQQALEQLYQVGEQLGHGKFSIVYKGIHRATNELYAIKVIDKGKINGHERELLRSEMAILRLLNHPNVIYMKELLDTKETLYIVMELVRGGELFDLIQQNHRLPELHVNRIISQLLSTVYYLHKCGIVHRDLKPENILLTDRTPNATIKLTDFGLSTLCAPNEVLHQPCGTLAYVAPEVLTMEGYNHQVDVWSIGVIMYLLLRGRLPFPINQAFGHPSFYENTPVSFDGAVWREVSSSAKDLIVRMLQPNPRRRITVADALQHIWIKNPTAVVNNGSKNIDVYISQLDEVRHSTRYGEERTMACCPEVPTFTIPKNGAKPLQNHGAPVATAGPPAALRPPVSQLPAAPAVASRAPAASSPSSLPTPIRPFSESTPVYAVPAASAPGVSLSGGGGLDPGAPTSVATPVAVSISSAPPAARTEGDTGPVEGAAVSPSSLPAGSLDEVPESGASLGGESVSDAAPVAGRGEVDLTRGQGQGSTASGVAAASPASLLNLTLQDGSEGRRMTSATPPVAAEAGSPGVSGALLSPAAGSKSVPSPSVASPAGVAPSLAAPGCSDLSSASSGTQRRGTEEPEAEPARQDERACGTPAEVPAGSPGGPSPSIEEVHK
UniProt A0A125YY17: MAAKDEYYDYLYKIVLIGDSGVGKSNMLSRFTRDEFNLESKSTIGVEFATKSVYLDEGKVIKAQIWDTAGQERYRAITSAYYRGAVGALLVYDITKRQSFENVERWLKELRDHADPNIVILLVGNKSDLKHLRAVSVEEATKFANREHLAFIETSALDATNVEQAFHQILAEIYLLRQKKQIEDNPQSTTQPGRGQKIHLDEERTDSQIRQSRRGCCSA

Test [2] deals with DD-Myc-TgRab11a (Toxoplasma gondii). Described as above.
The target of test [3] is TgCDPK7-HA (Toxoplasma gondii Calcium Dependent Protein Kinase 7, 3xHA at the C-terminus) (Toxoplasma gondii) (UniProt S8G6L4). As to the kind of experiment: co-IP; T. gondii parasites lysed by ultrasonication in RIPA buffer; lysate with anti-HA antibody 12 h, Protein A/G agarose 6 h at 4°C, washed with RIPA; Western blot with anti-myc; Shield-1 present; ΔKu80 parasites as negative control.

No constants are given. Whether binding was seen depends on the method and setting. In cells and extracts the contact can be indirect. Some binding calls cover weakened binding; strength is not graded here.

Regarding “TgCDPK7-HA (Toxoplasma gondii Calcium Dependent Protein Kinase 7, 3xHA at the C-terminus) (from UniProt S8G6L4 1-2133) (enzyme)”, the binding entry in test [1] and in test [2] was “binds” each time.
Turning to “DD-Myc-TgRab11a (from UniProt A0A125YY17 1-219)”, the binding result in test [3] is given as “binds”.

(Values after PMC7909640.)
